This assay addresses α1-adrenergic receptor. As to the kind of experiment: Interaction with α1 receptors, [3H]-prazosin binding, rat cortex. As to conditions: Table 1; mean and standard deviation; read-out: α1 Ki ± ds.

SMILES strings stand for the structures.

On to `O=C(CCCN1CCC(O)(c2ccc(Cl)cc2)CC1)c1ccc(F)cc1` [Haloperidol, haloperidol, reference compound], for which the inhibition constant (Ki) amounted to 12 ± 2.5 nM.

For the origin of these results see US6710041B2, “Pyrrolo[2,1-B][3,1] benzothiazepines and their use for the preparation of medicaments with antipsychotic activity” (Sigma-Tau Industrie Farmaceutiche Riunite S.p.A., priority 2003, dated 2004).
